Measured values taken from paper PMC12003649.
Results are given in words; binding and its absence hold for the method and conditions named. Binding seen in cells or lysates may run through a third protein. Some results given as binding are weak or reduced against the parent protein; the word gives no strength. Each block holds one molecule with its values, some of them ahead of it.

Chains of the proteins cited; added tags and fusions are not shown. Residues count along the entry.
UniProt P11021, residues 19-654: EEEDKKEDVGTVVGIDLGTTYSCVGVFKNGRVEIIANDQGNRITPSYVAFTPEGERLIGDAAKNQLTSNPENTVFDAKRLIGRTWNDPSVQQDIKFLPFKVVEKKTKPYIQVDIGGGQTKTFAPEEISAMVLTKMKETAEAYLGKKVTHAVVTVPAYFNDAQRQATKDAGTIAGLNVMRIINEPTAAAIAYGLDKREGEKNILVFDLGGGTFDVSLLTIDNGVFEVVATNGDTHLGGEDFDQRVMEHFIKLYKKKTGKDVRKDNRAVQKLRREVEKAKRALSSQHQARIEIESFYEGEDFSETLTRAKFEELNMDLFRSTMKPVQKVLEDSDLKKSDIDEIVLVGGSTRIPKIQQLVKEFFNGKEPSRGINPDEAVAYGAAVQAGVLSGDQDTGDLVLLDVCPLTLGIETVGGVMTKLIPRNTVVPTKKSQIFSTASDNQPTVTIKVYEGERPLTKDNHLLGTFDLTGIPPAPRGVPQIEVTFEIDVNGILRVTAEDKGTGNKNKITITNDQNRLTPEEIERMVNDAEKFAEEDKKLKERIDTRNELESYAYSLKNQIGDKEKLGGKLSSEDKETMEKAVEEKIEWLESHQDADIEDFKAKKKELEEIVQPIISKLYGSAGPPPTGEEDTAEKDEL
UniProt Q14457: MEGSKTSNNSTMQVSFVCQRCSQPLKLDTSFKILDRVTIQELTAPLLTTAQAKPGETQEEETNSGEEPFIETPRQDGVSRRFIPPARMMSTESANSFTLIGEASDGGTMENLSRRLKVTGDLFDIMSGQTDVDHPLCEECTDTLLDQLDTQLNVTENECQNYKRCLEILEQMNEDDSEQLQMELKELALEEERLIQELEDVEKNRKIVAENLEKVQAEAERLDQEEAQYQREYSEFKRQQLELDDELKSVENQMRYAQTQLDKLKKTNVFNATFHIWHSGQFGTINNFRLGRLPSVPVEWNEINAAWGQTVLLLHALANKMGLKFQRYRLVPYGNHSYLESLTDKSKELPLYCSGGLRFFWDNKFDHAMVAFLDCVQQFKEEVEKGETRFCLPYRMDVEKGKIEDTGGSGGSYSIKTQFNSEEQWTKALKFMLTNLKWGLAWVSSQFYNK

Target: HSPA5 (human (endogenous in A2780 and SKOV3)) (UniProt P11021)
Test: co-IP; lysate of OC cells incubated overnight with BECN1 or HSPA5 antibody, Protein A/G agarose beads, 4 °C 2 h; BECN1, HSPA5 and HMGCR detected by western blot; cells also with sh-BECN1, oe-BECN1, HMGCR overexpression or sh-ESM1

- binding: binds
Molecule: Beclin 1 (BECN1) (from UniProt Q14457 1-450)

- binding: binds
B1: HMGCR (protein, UniProt P04035 1-888)
chain: MLSRLFRMHGLFVASHPWEVIVGTVTLTICMMSMNMFTGNNKICGWNYECPKFEEDVLSSDIIILTITRCIAILYIYFQFQNLRQLGSKYILGIAGLFTIFSSFVFSTVVIHFLDKELTGLNEALPFFLLLIDLSRASTLAKFALSSNSQDEVRENIARGMAILGPTFTLDALVECLVIGVGTMSGVRQLEIMCCFGCMSVLANYFVFMTFFPACVSLVLELSRESREGRPIWQLSHFARVLEEEENKPNPVTQRVKMIMSLGLVLVHAHSRWIADPSPQNSTADTSKVSLGLDENVSKRIEPSVSLWQFYLSKMISMDIEQVITLSLALLLAVKYIFFEQTETESTLSLKNPITSPVVTQKKVPDNCCRREPMLVRNNQKCDSVEEETGINRERKVEVIKPLVAETDTPNRATFVVGNSSLLDTSSVLVTQEPEIELPREPRPNEECLQILGNAEKGAKFLSDAEIIQLVNAKHIPAYKLETLMETHERGVSIRRQLLSKKLSEPSSLQYLPYRDYNYSLVMGACCENVIGYMPIPVGVAGPLCLDEKEFQVPMATTEGCLVASTNRGCRAIGLGGGASSRVLADGMTRGPVVRLPRACDSAEVKAWLETSEGFAVIKEAFDSTSRFARLQKLHTSIAGRNLYIRFQSRSGDAMGMNMISKGTEKALSKLHEYFPEMQILAVSGNYCTDKKPAAINWIEGRGKSVVCEAVIPAKVVREVLKTTTEAMIEVNINKNLVGSAMAGSIGGYNAHAANIVTAIYIACGQDAAQNVGSSNCITLMEASGPTNEDLYISCTMPSIEIGTVGGGTNLLPQQACLQMLGVQGACKDNPGENARQLARIVCGTVMAGELSLMAALAAGHLVKSHMIHNRSKINLQDLQGACTKKTA
